Molecules are shown by their SMILES. The list shows a part of the results. Repeats are few or missing, and single values can be far off.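 The apoptosis fraction was the count of cleaved-PARP antibody-stained nuclei relative to all DNA-stained nuclei, imaged in 1,536-well plates. Screening doses were set so most cells survived, and baseline and induced cleaved-PARP levels vary greatly across cell lines.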

The assay has as its system RVH-421. The assay is described as follows: cleaved PARP positive nuclei fraction relative to DMSO control; melanoma cells; higher = more apoptosis. The conditions noted are these: library dose: low library concentration; 72 h.
With `C[As](C)SC[C@H](NC(=O)CC[C@H](N)C(=O)O)C(=O)NCC(=O)O` [Darinaparsin] + O=C(Nc1ccccc1)c1cc([N+](=O)[O-])ccc1Cl [GW9662] (first compound 0.4 µM, partner dose 2 µM), the “cleaved PARP positive nuclei fraction” value is 228%.
Next, `C[C@]12O[C@H](C[C@]1(O)CO)n1c3ccccc3c3c4c(c5c6ccccc6n2c5c31)CNC4=O` [Lestaurtinib] + O=C(O)c1ccc(-c2c[nH]c3ncc(-c4ccccc4)cc23)cc1C1CCCC1 [GSK650394] (first compound 0.004 µM, partner dose 0.16 µM): 129%.
As for `C[C@]12O[C@H](C[C@]1(O)CO)n1c3ccccc3c3c4c(c5c6ccccc6n2c5c31)CNC4=O` [Lestaurtinib] + Oc1cc(-c2nc(-c3ccccc3)[nH]c2-c2ccncc2)ccc1Cl [L779450] (first compound 0.004 µM, partner dose 0.2 µM), the “cleaved PARP positive nuclei fraction” value was determined as 98.9%.
With `COc1ccc2c(c1)CCC1C2CCC2(C)C(NCCCCCCN3C(=O)C=CC3=O)CCC12` (stereo unspecified) + C/C(O)=C(\C#N)C(=O)Nc1cc(Br)ccc1Br [LFM-A13] (first compound 0.4 µM, partner dose 2 µM) the figure was 118%; with `Cc1cc(SCc2sc(-c3ccc(C(F)(F)F)c(F)c3)nc2C)ccc1OCC(=O)O` + C/C(O)=C(\C#N)C(=O)Nc1cc(Br)ccc1Br [LFM-A13] (first compound 2 µM, partner dose 2 µM), 71%; with `COC(=O)c1sccc1S(=O)(=O)Nc1ccc(Nc2ccccc2)cc1OC` + C/C(O)=C(\C#N)C(=O)Nc1cc(Br)ccc1Br [LFM-A13] (first compound 1 µM, partner dose 2 µM), 59.4%.

The values above are taken from the supplement of paper PMC4604168 (melanoma cell lines).
